The record followed here is patent publication US20240247029A1 (VALORISATION HSJ, LIMITED PARTNERSHIP, priority 2020, published 2024).

The nature of this data set: general procedure: Fmoc solid-phase peptide synthesis; polystyrene Rink amide resin (75-100 mesh, 1% DVB, 0.5 mmol/g loading); HBTU. The settings on record: whole synthesis.

For “[(3R,4S)-4-(4′-(1,1-Dimethyl)aminomethyltriazolyl)Agl^3]-1”, the isolated mass amounted to 6 mg. In addition, for the setting “LC-MS analysis with MeOH or MeCN gradients (0.1% FA), scale of the general procedure 50.0 μmol”, the “crude LC-MS purity” value is 73%. Besides, where the note is “LC-MS analysis with MeOH or MeCN gradients (0.1% FA), scale of the general procedure 50.0 μmol, run 1”, the “final LC-MS purity” value was >95%. Moreover, the “final LC-MS purity” value (LC-MS analysis with MeOH or MeCN gradients (0.1% FA), scale of the general procedure 50.0 μmol, run 2) was >98%. Further, where the note is “scale of the general procedure 50.0 μmol”, the isolated yield is given as 13%.
